Measured values published in the supplement of paper PMC4256282, “Profound Activity of the Anti-cancer Drug Bortezomib against Echinococcus multilocularis Metacestodes Identifies the Proteasome as a Novel Drug Target for Cestodes” (PLoS Neglected Tropical Diseases, 2014).
Structures can show the parent of a compound that is named as a salt. This is one part of the list. Most values come without repeats; read them as rough.

What follows are compounds tested on Echinococcus multilocularis metacestodes (assay: vesicle damage (PGI release) relative to positive control DB1127 at 20 µM, DMSO subtracted; higher = more parasite damage). Settings: treatment time 5 days.
`C=C1c2cccc(O)c2C(=O)C2=C(O)[C@]3(O)C(=O)C(C(N)=O)=C(O)[C@@H](N(C)C)[C@@H]3[C@@H](O)[C@H]12` [Methacycline hydrochloride] showed a vesicle damage of 5.25%.
For `Nc1nc(Cl)nc2c1ncn2[C@H]1C[C@H](O)[C@@H](CO)O1` [Cladribine], the vesicle damage was -0.352%.
Compound `CC(C)NCC(O)c1ccc(NS(C)(=O)=O)cc1` (stereo not drawn) [Sotalol hydrochloride] has a vesicle damage of 2.87%.
With `NCCCC(O)(P(=O)(O)O)P(=O)(O)O` [Alendronate sodium] the vesicle damage was 0.651%.
`CCOc1ccccc1OCCN[C@H](C)Cc1ccc(OC)c(S(N)(=O)=O)c1` [Tamsulosin hydrochloride] gave a vesicle damage of 0.712%.
`C#Cc1cccc(Nc2ncnc3cc(OCCOC)c(OCCOC)cc23)c1` [Erlotinib HCl] gave a vesicle damage of -4.28%.
Compound `O=c1[nH]c(=O)n([C@H]2C[C@H](O)[C@@H](CO)O2)cc1C(F)(F)F` [Trifluridine] has a vesicle damage of -13.4%.
`O=c1[nH]c(=O)n([C@H]2C[C@H](O)[C@@H](CO)O2)cc1F` [Floxuridine] showed a vesicle damage of 2.37%.
Compound `CC(C)n1c(/C=C/C(O)CC(O)CC(=O)O)c(-c2ccc(F)cc2)c2ccccc21` (stereo not drawn) [Fluvastatin Sodium] has a vesicle damage of 0.968%.
`NS(=O)(=O)c1cc2c(cc1Cl)N=CNS2(=O)=O` [Chlorothiazide] was tested, and the vesicle damage was 6.87%.
`C[C@]12CC[C@H](O)CC1=CC[C@@H]1[C@@H]2CC[C@]2(C)C(c3cccnc3)=CC[C@@H]12` [Abiraterone] gave a vesicle damage of -5.27%.
With `Cc1cn(-c2cc(NC(=O)c3ccc(C)c(Nc4nccc(-c5cccnc5)n4)c3)cc(C(F)(F)F)c2)cn1` [Nilotinib] the vesicle damage was 0.205%.
`O=C(c1ccc(OCCN2CCCCC2)cc1)c1c(-c2ccc(O)cc2)sc2cc(O)ccc12` [Evista] was tested, and the vesicle damage was -1.58%.
Compound `COc1nc(N)nc2c1ncn2[C@@H]1O[C@H](CO)[C@@H](O)[C@@H]1O` [Nelarabine] has a vesicle damage of -0.295%.
With `C[C@@H](O)[C@H]1C(=O)N2C(C(=O)[O-])=C(SC3Cn4cnc[n+]4C3)[C@H](C)[C@H]12` (stereo partly drawn) [Biapenem] the vesicle damage was 0.399%.
In the case of `CN(C)CCCN1c2ccccc2Sc2ccc(Cl)cc21` [Chlorpromazine hcl], the vesicle damage is reported as 15.7%.
`Cc1cc(NS(=O)(=O)c2ccc(N)cc2)no1` [Sulfamethoxazole] showed a vesicle damage of -12%.
`Nc1ncn([C@H]2C[C@H](O)[C@@H](CO)O2)c(=O)n1` [Decitabine] was tested, and the vesicle damage was 0.352%.
For `CN(C)CC/C=C1/c2ccccc2Sc2ccc(Cl)cc21` [Chlorprothixene], the vesicle damage was -0.74%.
With `Nc1nc2[nH]cc(CCc3ccc(C(=O)N[C@@H](CCC(=O)O)C(=O)O)cc3)c2c(=O)[nH]1` [Pemetrexed disodium] the vesicle damage was -4.64%.
With `COc1ccccc1N1CCN(CC(O)COc2cccc3ccccc23)CC1` (stereo not drawn) [Naftopidil] the vesicle damage was 0.769%.
Compound `[I-].[K+]` [Potassium iodide] has a vesicle damage of -6.74%.
With `C[C@@H]1C[C@H]2[C@@H]3CCC4=CC(=O)C=C[C@]4(C)[C@@]3(F)[C@@H](O)C[C@]2(C)[C@@]1(O)C(=O)CO` [Dexamethasone] the vesicle damage was 2.94%.
With `Cc1ccccc1N1C(=O)c2cc(S(N)(=O)=O)c(Cl)cc2NC1C` (stereo not drawn) [Metolazone] the vesicle damage was -1.83%.
`CCOC(=O)[C@H](CCc1ccccc1)N[C@@H](C)C(=O)N1CCC[C@H]1C(=O)O` [Enalapril maleate] gave a vesicle damage of -7.58%.
Compound `CCC(=O)OCC(=O)[C@@]1(OC(=O)CC)[C@@H](C)C[C@H]2[C@@H]3CCC4=CC(=O)C=C[C@]4(C)[C@@]3(F)[C@@H](O)C[C@@]21C` [Betamethasone dipropionate] has a vesicle damage of -0.345%.
`COc1ccc(-c2nc3cc(C4=NNC(=O)CC4C)ccc3[nH]2)cc1` (stereo not drawn) [Pimobendan] was tested, and the vesicle damage was -2.73%.
Compound `CN[C@@H]1[C@H](O)[C@H](NC)[C@H]2O[C@@]3(O)C(=O)C[C@@H](C)O[C@H]3O[C@@H]2[C@H]1O` [Spectinomycin  hcl] has a vesicle damage of 1.04%.
`CC(C)Cc1ccc(C(C)C(=O)O)cc1` (stereo not drawn) [Ibuprofen Lysine] was tested, and the vesicle damage was -0.237%.
With `COc1c(N2CCNC(C)C2)c(F)cc2c(=O)c(C(=O)O)cn(C3CC3)c12` (stereo not drawn) [Gatifloxacin] the vesicle damage was -2.21%.
`O=C(NCCO[N+](=O)[O-])c1cccnc1` [Nicorandil] showed a vesicle damage of -12.3%.
For `CCC[C@@H]1C[C@@H](C(=O)N[C@@H]([C@H]2O[C@H](SC)[C@H](O)[C@@H](O)[C@H]2O)[C@H](C)Cl)N(C)C1` [Clindamycin hydrochloride], the vesicle damage was -1.13%.
`CCc1c2c(nc3ccc(OC(=O)N4CCC(N5CCCCC5)CC4)cc13)-c1cc3c(c(=O)n1C2)COC(=O)[C@]3(O)CC` [Irinotecan Hcl Trihydrate] gave a vesicle damage of 7.36%.
For `Nc1ncnc2c1ncn2[C@@H]1O[C@H](CO)[C@@H](O)[C@H]1O` [Adenosine], the vesicle damage was -2.42%.
`CNCCCC12CCC(c3ccccc31)c1ccccc12` [Maprotiline hydrochloride] gave a vesicle damage of -6.88%.
Work on `C[C@@H](NCCCc1cccc(C(F)(F)F)c1)c1cccc2ccccc12` [Cinacalcet hydrochloride] yielded a vesicle damage of 22.8%.
`CCC[C@@H]1C[C@@H](C(=O)N[C@@H]([C@H]2O[C@H](SC)[C@H](O)[C@@H](O)[C@H]2O)[C@@H](C)O)N(C)C1` [Lincomycin hydrochloride] gave a vesicle damage of 2.74%.
Compound `CCCSc1ccc2[nH]c(NC(=O)OC)nc2c1` [Albendazole] has a vesicle damage of 2.11%.
